The other results are listed elsewhere or left out.
How the values were obtained:
Experiment in all cases: glycan array binding signal (z-score within array); higher = stronger binding
Settings in all cases: glycan notation: IUPAC condensed, linker removed
[1] = biological target: Neu5Ac(a2-6)Gal(b1-4)GlcNAc(b1-2)Man(a1-6)[Man(a1-3)]Man(b1-4)GlcNAc(b1-4)GlcNAc
Method in brief: (§1)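 Glycan array data came from 3228 arrays in the Consortium for Functional Glycomics database, and only arrays with an available protein sequence were kept. Glycan names were put into IUPAC-condensed notation, and columns mapping to the same glycan were averaged. The binding signal is a within-array Z-score, averaged across arrays of one protein sequence run at different concentrations or buffers and across linkers. A negative Z-score can be read as non-binding.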

[2] = biological target: Neu5Ac(a2-6)Gal(b1-4)GlcNAc(b1-2)[Neu5Ac(a2-6)Gal(b1-4)GlcNAc(b1-4)]Man(a1-3)[GlcNAc(b1-4)][Neu5Ac(a2-6)Gal(b1-4)GlcNAc(b1-2)[Neu5Ac(a2-6)Gal(b1-4)GlcNAc(b1-6)]Man(a1-6)]Man(b1-4)GlcNAc(b1-4)GlcNAc
Method in brief: as §1

[3] = biological target: Neu5Ac(a2-6)Gal(b1-4)GlcNAc(b1-2)[Neu5Ac(a2-6)Gal(b1-4)GlcNAc(b1-4)]Man(a1-3)[GlcNAc(b1-4)][Neu5Ac(a2-6)Gal(b1-4)GlcNAc(b1-4)Man(a1-6)]Man(b1-4)GlcNAc(b1-4)GlcNAc
Method in brief: as §1

[4] = biological target: Neu5Ac(a2-6)Gal(b1-4)GlcNAc(b1-2)[Neu5Ac(a2-6)Gal(b1-4)GlcNAc(b1-6)]Man(a1-6)[Neu5Ac(a2-6)Gal(b1-4)GlcNAc(b1-2)Man(a1-3)][GlcNAc(b1-4)]Man(b1-4)GlcNAc(b1-4)GlcNAc
Method in brief: as §1

[5] = biological target: Neu5Ac(a2-6)Gal(b1-4)GlcNAc(b1-3)Gal(b1-3)GlcNAc
Method in brief: as §1

[6] = biological target: Neu5Ac(a2-6)Gal(b1-4)GlcNAc(b1-3)Gal(b1-4)GlcNAc
Method in brief: as §1

[7] = biological target: Neu5Ac(a2-6)Gal(b1-4)GlcNAc(b1-3)Gal(b1-4)GlcNAc(b1-2)Man(a1-3)[Neu5Ac(a2-6)Gal(b1-4)GlcNAc(b1-3)Gal(b1-4)GlcNAc(b1-2)Man(a1-6)]GalNAc
Method in brief: as §1

[8] = biological target: Neu5Ac(a2-6)Gal(b1-4)GlcNAc(b1-3)Gal(b1-4)GlcNAc(b1-3)Gal(b1-4)GlcNAc
Method in brief: as §1

[9] = biological target: Neu5Ac(a2-6)Gal(b1-4)GlcNAc(b1-3)Gal(b1-4)GlcNAc(b1-3)Gal(b1-4)GlcNAc(b1-2)Man(a1-3)[Neu5Ac(a2-6)Gal(b1-4)GlcNAc(b1-3)Gal(b1-4)GlcNAc(b1-3)Gal(b1-4)GlcNAc(b1-2)Man(a1-6)]GalNAc
Method in brief: as §1

[10] = biological target: Neu5Ac(a2-6)Gal(b1-4)GlcNAc(b1-3)Gal(b1-4)GlcNAc(b1-3)GalNAc
Method in brief: as §1

[11] = biological target: Neu5Ac(a2-6)Gal(b1-4)GlcNAc(b1-3)Gal(b1-4)GlcNAc(b1-3)[Neu5Ac(a2-6)Gal(b1-4)GlcNAc(b1-3)Gal(b1-4)GlcNAc(b1-6)]GalNAc
Method in brief: as §1

[12] = biological target: Neu5Ac(a2-6)Gal(b1-4)GlcNAc(b1-3)Gal(b1-4)GlcNAc(b1-6)[Gal(b1-3)]GalNAc
Method in brief: as §1

[13] = biological target: Neu5Ac(a2-6)Gal(b1-4)GlcNAc(b1-3)Gal(b1-4)[Fuc(a1-3)]GlcNAc(b1-3)Gal(b1-4)[Fuc(a1-3)]GlcNAc
Method in brief: as §1

[14] = biological target: Neu5Ac(a2-6)Gal(b1-4)GlcNAc(b1-3)GalNAc
Method in brief: as §1

[15] = biological target: Neu5Ac(a2-6)Gal(b1-4)GlcNAc(b1-3)[Neu5Ac(a2-6)Gal(b1-4)GlcNAc(b1-6)]GalNAc
Method in brief: as §1

[16] = biological target: Neu5Ac(a2-6)Gal(b1-4)GlcNAc(b1-6)GalNAc
Method in brief: as §1

[17] = biological target: Neu5Ac(a2-6)Gal(b1-4)GlcNAc(b1-6)[Gal(b1-3)GlcNAc(b1-3)]Gal(b1-4)Glc
Method in brief: as §1

[18] = biological target: Neu5Ac(a2-6)Gal(b1-4)GlcNAc(b1-6)[Gal(b1-3)]GalNAc
Method in brief: as §1

[19] = biological target: Neu5Ac(a2-6)Gal(b1-4)GlcNAc6S
Method in brief: as §1

Neu5Ac(a2-6)GalNAc = biological target: Neu5Ac(a2-6)GalNAc
Method in brief: as §1

[20] = biological target: Neu5Ac(a2-6)GalNAc(b1-4)GlcNAc
Method in brief: as §1

[21] = biological target: Neu5Ac(a2-6)GalNAc(b1-4)GlcNAc6S
Method in brief: as §1

[22] = biological target: Neu5Ac(a2-6)GlcNAc(b1-4)GlcNAc
Method in brief: as §1

B1: Awp3 (Candida glabrata), B4UN32 (protein)
chain: MISFVTLLAILGLLSISWADQTVRSVAGDQRVTDPVIVGDNSILDYYGGSNYDFSNNFEIGRGTLYIGKESYFSSFQSAPTDVPNSFHLLIKNTNNLQNNGQFIIENIKRHANQCSNSSIQVFPINFQNDGEFEIISGGVEGRCCLPTSVIAPQNFLNNGKFYYKVLTDTGSIYSGSCMQNVDIGASTTTTVNNNLWEFTGSINAQINGAVSGAAQINLDGSNMFVNANTFSGQVVNLINGGSFLQTSDPLSNIVVINGLGTSDTGVTSIAVKGKGKSFTYNPSSGIVKLTTVEGKTYAYQIGCGYNTKKFITNNDSGASYESADNFFVLTYSEPYSPQTCQLENSSIFSSNFISTSTSSSSSSSSASSLPSSMSSSLPSSLSSSLSSSLSSSMSSSMSSLFIIPPPYTTTRSSGSSIIDTEIVSFYSTTDSPGHTITGTTTTTLYGPHTHSSVSTPSSSSESSTTSNSSIESSSLPHTSVSSTPESSITPSSNTISSSPTSDFSSVQSSSIMESSSVVASSSVINSSSIVDSSSSSASSLPSSMSSSLSSSMSSSLPSSMSSSLSSSLSSSLSSSMSSSMSSLFIIPPPYTTTRSSGSSIIDTEIVSFYSTTDSPGHTITGTTTTTLYGPHTHSSVSTPSSSSESSTTSNSSIESSSLPHTSVSSTPESSITPSSNTISSSPTSDFSSVQSSSIMESSSVVASSSVINSSSIVDSSSSSASSLPSSMPSSLPSSMSSSLSSSMSSSLSSSLSSSLSSSMSSSMSSLFIIPPPYTTTRSSGSSIIDTEIVSFYSTTDSPGHTITGTTTTTLYGPHTHSSVSTPSSSSESSTTSNSSIESSSLPHTSVSSTPESSITPSSNTISSSPTSDFSSVQSSSIMESSSVVASSSATQSSSVINSSSIVDSSSSSASSLPSSMPSSLPSSLSSSLSSSLSSSMSSSMSSLFIIPPPYTTTRSSGSSIIDTEIVSFYSTTDSPGHTITGTTTTTLYESSIYSSSSSTIQESELSNTSRTTMTSNSSVSISSTSSRSSFSNTKSSTIVISQSASLPDSKTDIILSTSSNIGYSSRSLLSDLGTSISDSDIHHSVLHSTESYSSNESGTNPFTSIASLSNFIPESSSHTSTALGSENSVISSDILTTMSHPVATNSGDKPTTPKRSEQVSTTMTSSGPTPDTSSFDTDGMSAYSRPEFTTNSLEVNKSSTSQLGNNKQTFSNLQLESTRPHSENEVDNNTRLLQSIQQSSTYGTNNVNPLSPTGSISIPLTEDGQGDNNNWNSPATNDLCTQISFNLTATTITVTDRITITDSIHDISSEVITSYIYQTIVDQKTVTQTVDGKSLANKMSSIPKPSSRSLIQPQPPVAIELQEGAASTSRVSLVSLFISIILVLL
[1]
  glycan array binding signal (z-score): 0.591
[2]
  glycan array binding signal (z-score): 0.723
[3]
  glycan array binding signal (z-score): -1.24
[4]
  glycan array binding signal (z-score): -0.372
[5]
  glycan array binding signal (z-score): 1.1
[6]
  glycan array binding signal (z-score): -1.68
[7]
  glycan array binding signal (z-score): 3.08
[8]
  glycan array binding signal (z-score): 0.879
[9]
  glycan array binding signal (z-score): 1.39
[10]
  glycan array binding signal (z-score): -1.67
[11]
  glycan array binding signal (z-score): 0.384
[12]
  glycan array binding signal (z-score): 1.06
[13]
  glycan array binding signal (z-score): 1.75
[14]
  glycan array binding signal (z-score): 0.189
[15]
  glycan array binding signal (z-score): 0.684
[16]
  glycan array binding signal (z-score): 0.184
[17]
  glycan array binding signal (z-score): 1.02
[18]
  glycan array binding signal (z-score): 2.16
[19]
  glycan array binding signal (z-score): 1.29
Neu5Ac(a2-6)GalNAc
  glycan array binding signal (z-score): -0.031
[20]
  glycan array binding signal (z-score): -0.39
[21]
  glycan array binding signal (z-score): 0.454
[22]
  glycan array binding signal (z-score): 2.86

From the supplement of paper PMC8728848
